# “And” between values parts separate entries of the source, which are not always exact repeats. Equal values may be shown once. Out of some 300,000 compounds screened, about 5,400 (1.8%) were called active. The shares of active, inactive and inconclusive entries below differ from those in the screen. Calls follow the shape of the full dose curve; tested in HEK293 cells. Potencies of inconclusive entries are doubtful fits and often do not repeat.
# Test: qHTS for inhibitors of binding or entry into cells for Marburg Virus
# Conditions: Marburg virus pseudotyped entry inhibition, cell reporter; series mostly up to 37.8 µM
# Potency is read from the fitted curve at half-maximal effect.
row,SMILES,Potency
1,CCOc1ccc(NC(=O)CN2CCCC2c2cccs2)cc1S(=O)(=O)N1CCCCC1 (stereo not drawn),"inconclusive: 11.2 µM [inhibitor, partial curve, poor fit]"
2,COc1ccccc1-n1cc(-c2ccc(C)cc2)nc1S(=O)(=O)CC(=O)Nc1ccccc1C(F)(F)F,"inconclusive: 12.6 µM [inhibitor, single point]"
3,OCCSc1nc(-c2cccnc2)nc2ccccc12,"inconclusive: 32.6 µM [inhibitor, single point]"
4,COCCn1c(C)cc(C(=O)CSc2ccc(NC(C)=O)cc2)c1C,inactive
5,CCc1ccc2c(c1)c1nnc(NN)nc1n2CC,"inconclusive: 35.5 µM [inhibitor, single point]"
6,CCN1C(=O)N(C)C(c2ccccc2)C(C(=O)OC)=C1C (stereo not drawn),"inconclusive: 0.0299 µM [inhibitor, full curve, poor fit]"
7,CN1CCN(c2ccc(NC(=O)c3ccc(-c4ccc(Cl)cc4)o3)cc2)CC1,"inconclusive: 6.31 µM [inhibitor, full curve, poor fit]"
8,COc1ccc(NC(=O)c2cc(-c3cc(OC)c(OC)c(OC)c3)nc3ccccc23)cc1OC,"inconclusive: 35.5 µM [inhibitor, partial curve, poor fit]"
9,O=C(/C=C/c1ccccc1)N/C(=C/c1ccccc1)C(=O)NCCCO,"inconclusive: 1.12 µM [activator, partial curve, poor fit]"
10,COc1ccccc1CCC(=O)Nc1ccc(S(=O)(=O)Nc2cc(C)nc(C)n2)cc1,"inconclusive: 2.82 µM [inhibitor, partial curve, poor fit]"
11,CSc1ccc(CNC2CN3CCC2CC3)cc1 (stereo not drawn),"inconclusive: 0.517 µM [inhibitor, full curve, poor fit]"
12,COc1ccc(NS(=O)(=O)c2ccc(-c3coc(C)n3)cc2)c(OC)c1,"inconclusive: 35.5 µM [inhibitor, single point]"
13,O=C(NC(Cc1c[nH]c2ccccc12)C(=O)N/N=C/c1ccc(Br)cc1)c1cccs1 (stereo not drawn),"inconclusive: 10 µM [inhibitor, partial curve, poor fit]"
14,O=c1[nH]c2ccccc2nc1C(F)(F)F,inactive
15,CCOC(=O)c1sc(NC(=O)c2c(C)nn(Cc3ccccc3)c2C)cc1C,"inconclusive: 11.2 µM [inhibitor, partial curve, poor fit]"
16,COc1ccc(NS(=O)(=O)c2cc(NC(=O)Cc3n[nH]c(=O)c4ccccc34)ccc2OC)cc1,inactive
17,COc1ccc(OC)c(CNc2ccc(F)c(Cl)c2)c1,inactive
18,O=C(Nc1ccc(-c2noc(-c3cccs3)n2)cc1)c1cccnc1,"inconclusive: 10 µM [inhibitor, partial curve, poor fit]"
19,CCOc1ccc(CCNC(=O)c2cccc(S(=O)(=O)N3CCCCC3)c2)cc1OCC,"inconclusive: 25.1 µM [inhibitor, single point]"
20,N/C(=N\OC(=O)C(c1ccccc1)c1ccccc1)c1ccncc1,"inconclusive: 8.91 µM [inhibitor, partial curve]"
21,CCOC(=O)C1CCN(Cc2cc(C(C)(C)C)c(O)c(C(C)(C)C)c2)CC1,"inconclusive: 14.1 µM [inhibitor, partial curve, poor fit]"
22,CSc1ncc(Cl)c(C(=O)Nc2ccccc2Cl)n1,inactive
23,O=C(NCCN1CCOCC1)c1cc(-c2ccccc2Cl)on1,inactive

row,SMILES,Potency
1,CC(=O)c1cc(-c2ccc(F)cc2)n(CCC(=O)NCc2ccccc2C)c1C,"inconclusive: 1.78 µM [inhibitor, partial curve, poor fit]"
2,NC(=S)N1N=C(c2ccccc2)CC1=O,inactive
3,CCOC(=O)c1nnn(CC(=O)Nc2cccc(Cl)c2C)c1C(=O)OCC,"inconclusive: 35.5 µM [activator, single point]"
4,Cc1ccc(S(=O)(=O)NCC(=O)N(CC(=O)NCc2ccc(F)cc2)CC2CCCO2)cc1 (stereo not drawn),inactive
5,COc1ccccc1C(CNC(=O)C(C)Oc1ccc(Br)cc1)N1CCCC1 (stereo not drawn),"inconclusive: 14.1 µM [inhibitor, partial curve, poor fit]"
6,Cc1ccc(CC(=O)Nc2nc3c(s2)CCCC3)cc1,"inconclusive: 2.51 µM [inhibitor, full curve, poor fit]"
7,COc1ccc(S(=O)(=O)N(Cc2nc(-c3ccc(C)cc3)no2)C2CCCCC2)cc1,inactive
8,CCCCN(CC)C(=O)c1ccc(Cl)c(Cl)c1,inactive
9,COc1ccc(-c2noc(C3CCCN(C(=O)CCc4ccccc4)C3)n2)cc1 (stereo not drawn),inactive
10,Cc1oc(-c2ccccc2F)nc1CN1CCC(C(=O)NCCC2=CCCCC2)CC1,"inconclusive: 20.6 µM [inhibitor, single point]"
11,COc1ccc(/C=N/NC(=O)c2ccoc2C)cc1COc1ccc(Cl)cc1,"inconclusive: 17.8 µM [inhibitor, single point]"
12,Cc1cccc(CN2CCN(C3CN(C4CCCCC4)S(=O)(=O)C3)CC2)c1 (stereo not drawn),"inconclusive: 39.6 µM [inhibitor, single point]"
13,CCN(CC)CCCNC(=O)c1ccc(OCC(=O)Nc2ccccc2C(F)(F)F)c(OC)c1,active: 11.2 µM
14,CC1(C)CC(CC(=O)NNc2nc(-c3ccccc3)cs2)C(=O)O1 (stereo not drawn),active: 1.26 µM
15,O=C(CN1CCN(c2ccc(O)cc2)CC1)Nc1cc(S(=O)(=O)N2CCCCC2)ccc1Cl,inactive
16,Cc1cccc(C2(c3cccc(C)c3)CC2C(=O)NCC2CCCO2)c1 (stereo not drawn),"inconclusive: 22.4 µM [inhibitor, partial curve, poor fit]"
17,O=C(COC(=O)Cc1cccc(C(F)(F)F)c1)NCC1CCCO1 (stereo not drawn),"inconclusive: 32.6 µM [inhibitor, partial curve, poor fit]"
18,O=C(CC1SC(N2CCCC2)=NC1=O)Nc1ccc(C(=O)Nc2ncccc2O)cc1 (stereo not drawn),inactive
19,CCC(=O)N1CCNC(=O)C1CC(=O)Nc1ccc(C)c(Cl)c1 (stereo not drawn),"inconclusive: 0.708 µM [activator, partial curve, poor fit]"
20,Cc1ccc(S(=O)(=O)NCCCC(=O)C=[N+]=[N-])cc1,"inconclusive: 0.562 µM [inhibitor, full curve, poor fit]"
21,COc1ccc(-c2nnc(-c3cc4ccccc4oc3=O)o2)cc1,inactive
22,Brc1ccc(CSc2ncn[nH]2)cc1,inactive
23,Cc1cc2c(c(=O)o1)[C@H]1O[C@](CCCCN3C(=O)c4ccccc4C3=O)(Cc3cc(C#N)ccc31)O2,"inconclusive: 2.66 µM [activator, partial curve, poor fit]"

row,SMILES,Potency
1,CC(=O)N(CCC(Cc1ccccc1)c1ccc2c(c1)OCO2)Cc1ccc(Cl)cc1 (stereo not drawn),"inconclusive: 14.1 µM [inhibitor, partial curve, poor fit]"
2,Cn1c(=O)c2c(nc(NC3CCCCC3)n2CC(O)COc2ccccc2)n(C)c1=O (stereo not drawn),"inconclusive: 22.4 µM [inhibitor, partial curve, poor fit]"
3,COc1cc(/C=N/Nc2ccccn2)ccc1O,"inconclusive: 3.55 µM [activator, single point]"
4,O=C(Cn1c(=O)n(Cc2ccco2)c(=O)c2c3c(sc21)CCCCC3)Nc1ccccc1,inactive
5,O=C(Cn1c(=O)n2nc(-c3ccccc3)nc2c2ccccc21)Nc1ccccc1C(F)(F)F,"inconclusive: 0.631 µM [inhibitor, full curve, poor fit]"
6,O=C(CC1(CC(=O)N2CCOCC2)CCCC1)Nc1ccc(F)cc1,"inconclusive: 0.562 µM [inhibitor, full curve, poor fit]"
7,Cc1ccc2oc(=O)c(/C=C(\O)c3sc(C)nc3C)nc2c1,inactive
8,CCc1ccc(-n2c(=O)c3c4c(sc3n(Cc3ccc(F)cc3)c2=O)CCCC4)cc1,inactive
9,CC1CN(Cc2ccccc2)c2ccccc2NC1=S (stereo not drawn),"inconclusive: 2.59 µM [activator, single point]"
10,Cc1cccc(OCc2nnc(SCc3cc(=O)n4cc(Br)ccc4n3)o2)c1,inactive
11,COc1ccc(C(=O)Nc2ccc3[nH]c(-c4cccc(OC)c4)cc(=O)c3c2)cc1,"inconclusive: 1.84 µM [inhibitor, full curve, poor fit]"
12,Cc1onc(-c2ccccc2)c1C(=O)NC(=S)NNC(=O)c1ccc(O)cc1O,"inconclusive: 3.66 µM [inhibitor, full curve]"
13,Cc1cccc(/C=C/c2ccccc2)n1,"inconclusive: 6.31 µM [activator, full curve] and inconclusive: 5.8 µM [activator, partial curve]"
14,CC1(C)CC(=O)C2=C(C1)OC(N)=C(C#N)C2c1ccccc1 (stereo not drawn),inactive
15,O=C(/C=C/Nc1ccc(F)cc1F)c1cccs1,"inconclusive: 7.08 µM [inhibitor, partial curve, poor fit]"
16,Cc1cc(S(=O)(=O)NCc2ccncc2)c(C)cc1Br,"inconclusive: 5.01 µM [inhibitor, partial curve, poor fit]"
17,C=C[C@H](N)CCC(=O)O,"inconclusive: 1.46 µM [activator, full curve]"
18,CC(Oc1ccccc1)C(=O)NC1=NCCS1 (stereo not drawn),"inconclusive: 35.5 µM [inhibitor, single point]"
19,Cc1cc(C)c2c(N=NN(C)C)[nH]nc2n1,"inconclusive: 14.1 µM [inhibitor, partial curve, poor fit]"
20,O=C1/C(=C\c2cc3c(cc2Cl)OCO3)N2CCC1CC2,"inconclusive: 0.708 µM [inhibitor, partial curve, poor fit]"
21,Nc1cc(=O)[nH]c(SCCOc2ccccc2)n1,inactive
22,O=C(Nc1cc(C(F)(F)F)ccc1Cl)C(Sc1nnc(-c2cccs2)o1)c1ccccc1 (stereo not drawn),inactive

# Grouped by structure: those above containing a cyano group.
row,SMILES,Potency
23,Cc1cc2c(c(=O)o1)[C@H]1O[C@](CCCCN3C(=O)c4ccccc4C3=O)(Cc3cc(C#N)ccc31)O2,"inconclusive: 2.66 µM [activator, partial curve, poor fit]"
14,CC1(C)CC(=O)C2=C(C1)OC(N)=C(C#N)C2c1ccccc1 (stereo not drawn),inactive

# Reference: PubChem BioAssay AID540276 (National Center for Advancing Translational Sciences (NCATS), 2011)
